The source of these data is article PMC7786100.

Results are given in words; binding and its absence hold for the method and conditions named. In cells and extracts the contact can be indirect. Some binding calls cover weakened binding; strength is not graded here.

The target of assay [1] is T1, Native Amel (amelogenin) from porcine enamel matrix protein extract (porcine (endogenous in developing molar enamel)) (UniProt P45561).
T1 sequence: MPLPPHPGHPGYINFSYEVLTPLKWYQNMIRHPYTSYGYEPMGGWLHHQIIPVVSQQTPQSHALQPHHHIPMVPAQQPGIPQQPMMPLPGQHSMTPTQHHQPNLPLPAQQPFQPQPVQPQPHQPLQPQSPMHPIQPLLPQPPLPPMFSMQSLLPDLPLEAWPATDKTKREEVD
The assay can be described thus: co-IP; Pierce co-IP kit; anti-Amel antibody column; native porcine enamel matrix protein extract loaded as a mixture of all enamel matrix proteins; eluate read by Western blot and mass spectrometry.

Assay [2] addresses T2, Native Ambn (ameloblastin) from porcine enamel matrix protein extract (porcine (endogenous in developing molar enamel)) (UniProt Q28989).
T2 sequence: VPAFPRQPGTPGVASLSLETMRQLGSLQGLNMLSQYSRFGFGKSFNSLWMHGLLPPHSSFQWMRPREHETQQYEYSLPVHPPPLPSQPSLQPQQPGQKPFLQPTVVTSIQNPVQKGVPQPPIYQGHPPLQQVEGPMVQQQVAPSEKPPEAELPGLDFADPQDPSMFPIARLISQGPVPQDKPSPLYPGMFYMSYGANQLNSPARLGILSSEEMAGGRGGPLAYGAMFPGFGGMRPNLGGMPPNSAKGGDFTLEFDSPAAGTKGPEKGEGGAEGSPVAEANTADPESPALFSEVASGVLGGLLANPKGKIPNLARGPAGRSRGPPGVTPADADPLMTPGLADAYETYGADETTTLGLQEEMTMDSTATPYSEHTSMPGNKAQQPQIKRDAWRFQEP
The assay can be described thus: co-IP; Pierce co-IP kit; anti-Ambn antibody column; native porcine enamel matrix protein extract loaded as a mixture of all enamel matrix proteins; eluate read by Western blot and mass spectrometry. For orientation: A western blot detects proteins with antibodies after separation by electrophoresis.

B1: Native Ambn (ameloblastin) from porcine enamel matrix protein extract (protein, UniProt Q28989 27-421)
chain: VPAFPRQPGTPGVASLSLETMRQLGSLQGLNMLSQYSRFGFGKSFNSLWMHGLLPPHSSFQWMRPREHETQQYEYSLPVHPPPLPSQPSLQPQQPGQKPFLQPTVVTSIQNPVQKGVPQPPIYQGHPPLQQVEGPMVQQQVAPSEKPPEAELPGLDFADPQDPSMFPIARLISQGPVPQDKPSPLYPGMFYMSYGANQLNSPARLGILSSEEMAGGRGGPLAYGAMFPGFGGMRPNLGGMPPNSAKGGDFTLEFDSPAAGTKGPEKGEGGAEGSPVAEANTADPESPALFSEVASGVLGGLLANPKGKIPNLARGPAGRSRGPPGVTPADADPLMTPGLADAYETYGADETTTLGLQEEMTMDSTATPYSEHTSMPGNKAQQPQIKRDAWRFQEP
Regarding B1, the binding result in assay [1] is listed as “binds”.

B2: Native Amel (amelogenin) from porcine enamel matrix protein extract (protein, UniProt P45561 17-189)
chain: MPLPPHPGHPGYINFSYEVLTPLKWYQNMIRHPYTSYGYEPMGGWLHHQIIPVVSQQTPQSHALQPHHHIPMVPAQQPGIPQQPMMPLPGQHSMTPTQHHQPNLPLPAQQPFQPQPVQPQPHQPLQPQSPMHPIQPLLPQPPLPPMFSMQSLLPDLPLEAWPATDKTKREEVD
Consider B2, for which the binding result in assay [2] was “binds”.
